PubChem BioAssay AID652243 – Drosophila RNAi Screening Center – 2013

- Aim: 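Fly regulators of androgen-dependent reporter output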 (primary screen)
- Cells: Drosophila S2R+ cells
- Reagent: long dsRNA against Drosophila genes
- Duration: 72 h (48 h, then 24 h hormone)
- Challenge: synthetic androgen R1881 at 10 nM for 24 h
- Read-out: 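Firefly light from an androgen-responsive reporter and Renilla control light per well, raw and unnormalised, for each of two replicates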
- Direction: firefly reporter light: higher = more light from androgen-responsive reporter; Renilla control light: higher = more constitutive control signal (cell number, transfection)
- Call rule: 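Hit when the log firefly-to-Renilla ratio dropped or increased by a fixed fold versus the mean of GFP or LacZ controls across duplicate plates; lowering cut given as 1.5 and as 3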
- Meaning of the calls: active = hit: reporter lowered or raised; inactive = no hit
The screen tested about 24,000 reagents; this is a random part of those that have a named target and a result. In the full data, 246 (1%) are marked active. 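Plates not normalised; calls are printed but the firefly/Renilla ratio behind them is not deposited; fold cut for lowering reported inconsistently.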 The raw values are shown without normalisation. A plus sign joins genes that one reagent is predicted to hit. The record does not give: the amount of reagent.

Gene	dsRNA	firefly reporter light, replicate 1	firefly reporter light, replicate 2	Renilla control light, replicate 1	Renilla control light, replicate 2	Outcome
CG7742	DRSC03066	6.96e5	8.50e5	1.15e6	1.29e6	inactive
CG42307 + mus312	DRSC11008	2.10e5	2.49e5	2.84e6	3.16e6	inactive
CG42307 + mus312	DRSC27742	4.18e5	4.36e5	4.81e5	5.50e5	inactive
CG1409	DRSC17910	2.33e5	3.13e5	2.53e6	2.79e6	inactive
TfIIFalpha	DRSC12608	91084	1.37e5	3.36e5	3.80e5	inactive
TfIIFalpha	DRSC26379	6.63e5	4.65e5	1.26e6	8.02e5	inactive
TfIIFalpha	DRSC38961	8.79e5	8.51e5	1.55e6	1.22e6	inactive
nrv3	DRSC03097	3.91e5	3.43e5	2.76e6	3.27e6	inactive
CG43996 + CG43997	DRSC19456	2.34e5	3.21e5	2.80e6	1.91e6	inactive
CG43996 + CG43997	DRSC19457	4.24e5	4.26e5	2.78e6	2.79e6	inactive
e(y)3	DRSC19450	1.61e5	2.00e5	4.42e5	7.45e5	inactive
e(y)3	DRSC23698	4.73e5	2.72e5	3.57e5	3.35e5	inactive
CR31958	DRSC00282	1.50e5	1.54e5	1.37e6	1.40e6	inactive
CR31958	DRSC21858	8.02e5	8.87e5	1.17e6	1.40e6	inactive
CR31958	DRSC25319	6.11e5	6.16e5	7.21e5	7.30e5	inactive
rl	DRSC07833	2.14e5	2.60e5	1.98e6	2.25e6	inactive
rl	DRSC20742	2.23e5	1.99e5	5.79e5	6.12e5	inactive
rl	DRSC21814	4.74e5	4.97e5	2.40e6	3.82e6	inactive
CG3565	DRSC04389	4.13e5	7.66e5	7.30e5	1.01e6	inactive
Papst2	DRSC10924	45195	40983	4.46e5	3.50e5	inactive
Papst2	DRSC27212	2.78e5	2.47e5	5.38e5	5.25e5	inactive
Chmp1	DRSC10401	37061	25543	5.34e5	2.75e5	inactive
Chmp1	DRSC25878	8.50e5	8.59e5	1.15e6	1.25e6	inactive
Chmp1	DRSC39060	5.98e5	5.00e5	1.74e6	1.54e6	inactive
Sou	DRSC04356	1.34e5	2.74e5	1.44e6	1.99e6	inactive
SmydA-8	DRSC22064	1.01e6	8.20e5	1.73e6	1.64e6	inactive
SmydA-8	DRSC22263	4.71e5	4.41e5	1.72e6	1.59e6	inactive
D	DRSC11132	1.77e5	1.47e5	1.83e6	1.13e6	inactive
D	DRSC25367	3.93e5	5.97e5	3.16e5	3.60e5	inactive
CG13476	DRSC10019	2.37e5	2.15e5	1.74e6	1.43e6	inactive
CG11438	DRSC11660	2.64e5	2.40e5	1.97e6	2.33e6	inactive
CG11438	DRSC36909					inactive
CR32821 + CR43381 + CR43377 + 1 more	DRSC22544	8.84e5	9.42e5	1.20e6	1.12e6	inactive

Ordered by “firefly reporter light, replicate 2” (highest first): some entries from above.
Gene	dsRNA	firefly reporter light, replicate 1	firefly reporter light, replicate 2	Renilla control light, replicate 1	Renilla control light, replicate 2	Outcome
Chmp1	DRSC25878	8.50e5	8.59e5	1.15e6	1.25e6	inactive
CG3565	DRSC04389	4.13e5	7.66e5	7.30e5	1.01e6	inactive
rl	DRSC21814	4.74e5	4.97e5	2.40e6	3.82e6	inactive
Papst2	DRSC27212	2.78e5	2.47e5	5.38e5	5.25e5	inactive
Papst2	DRSC10924	45195	40983	4.46e5	3.50e5	inactive
Chmp1	DRSC10401	37061	25543	5.34e5	2.75e5	inactive

More entries follow.
Gene	dsRNA	firefly reporter light, replicate 1	firefly reporter light, replicate 2	Renilla control light, replicate 1	Renilla control light, replicate 2	Outcome
SIDL	DRSC16077	93663	1.15e5	5.98e5	8.33e5	inactive
b6	DRSC18740	3.88e5	4.27e5	3.75e6	3.28e6	inactive
b6	DRSC24064	8.47e5	8.03e5	1.34e6	1.35e6	inactive
Ote	DRSC07498	2.26e5	2.59e5	4.11e5	5.23e5	inactive
CG3662	DRSC00626	7.20e5	7.01e5	1.62e6	1.16e6	inactive
ewg	DRSC18773	6.54e5	9.11e5	2.30e6	2.13e6	inactive
ewg	DRSC26141	2.88e5	2.25e5	8.58e5	6.20e5	inactive
CG3626	DRSC18318	4.15e5	4.69e5	4.42e6	4.46e6	inactive
CG3626	DRSC26443	3.37e5	2.63e5	5.52e5	3.57e5	inactive
nolo	DRSC03705	1.23e6	1.14e6	2.85e6	2.25e6	inactive
nolo	DRSC03719	2.76e5	2.33e5	2.16e6	1.50e6	inactive
nolo	DRSC03720	2.25e5	2.90e5	1.63e6	1.68e6	inactive
NKCC	DRSC12140	17564	53817	3.12e5	2.98e5	inactive
NKCC	DRSC12311	59459	71642	1.34e6	9.98e5	inactive
ND-B14.5A	DRSC18500	3.73e5	3.73e5	4.33e6	3.30e6	inactive
CG5639	DRSC15851	1.75e5	2.11e5	2.77e6	2.75e6	inactive
TwdlG	DRSC12229	44382	55616	1.41e6	1.48e6	inactive
TwdlG	DRSC27678	1.53e5	1.65e5	4.84e5	7.07e5	inactive
Tsp42Eh	DRSC06190	4.80e5	4.21e5	2.71e6	2.23e6	inactive
Coa8	DRSC17959	2.97e5	3.67e5	2.51e6	2.61e6	inactive
CG9799	DRSC16567	40397	30556	4.69e5	3.18e5	inactive
Gr22d	DRSC21653	5.95e5	5.27e5	3.03e6	2.15e6	inactive
Gr22d	DRSC25985	3.71e5	4.19e5	1.18e6	9.03e5	inactive
Mco4	DRSC20061	3.83e5	3.50e5	3.30e6	3.10e6	inactive
Mco4	DRSC27932	6.53e5	4.75e5	2.41e6	2.02e6	inactive
